Reference: publication PMC12768534
These are yes or no findings as the source states them, for the method shown. Some entries that bind do so weakly or less than the wild type.

Sequences of proteins named here, by UniProt entry; tags and fusion partners are left off.
UniProt Q9JHX3: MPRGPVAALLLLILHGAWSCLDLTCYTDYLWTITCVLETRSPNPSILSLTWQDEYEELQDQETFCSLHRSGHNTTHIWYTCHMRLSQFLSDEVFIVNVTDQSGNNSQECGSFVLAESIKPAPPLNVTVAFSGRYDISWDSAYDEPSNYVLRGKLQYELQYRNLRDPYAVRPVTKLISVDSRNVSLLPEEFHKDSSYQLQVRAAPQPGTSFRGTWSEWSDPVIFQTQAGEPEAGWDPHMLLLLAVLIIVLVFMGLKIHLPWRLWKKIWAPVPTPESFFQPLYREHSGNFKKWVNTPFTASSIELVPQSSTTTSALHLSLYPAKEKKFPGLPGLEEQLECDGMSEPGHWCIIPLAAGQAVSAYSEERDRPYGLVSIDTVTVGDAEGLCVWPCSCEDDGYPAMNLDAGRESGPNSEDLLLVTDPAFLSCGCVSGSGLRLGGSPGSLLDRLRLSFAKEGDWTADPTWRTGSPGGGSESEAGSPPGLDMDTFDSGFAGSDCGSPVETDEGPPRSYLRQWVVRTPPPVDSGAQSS

Target: biotinylated mIL-21R (mouse) (UniProt Q9JHX3)
Test: BLI; mIL-21 and 21h10 incubated in PBS or murine serum for 1-240 minutes at 37°C, then binding to mIL-21R; both purified

B1: 21h10 (designed binder)
chain: DEEELKEIMKEAAECARKELEKLDNTDEDTRWLKITLKKIVRMANRIVRMREREADSKRFEIRMRGLIDIADHVKREFASEDLKEVMERAKSAAQKALGRWL
For B1, the binding was “binds”.
